Assay results taken from patent US20240140931A1, “TRICYCLIC COMPOUNDS AND USES THEREOF” (HUTCHMED LIMITED, priority 2021, published 2024).

Protein sequences, listed by entry. Tags and fused reporters are not part of them.
UniProt Q06124, whole entry: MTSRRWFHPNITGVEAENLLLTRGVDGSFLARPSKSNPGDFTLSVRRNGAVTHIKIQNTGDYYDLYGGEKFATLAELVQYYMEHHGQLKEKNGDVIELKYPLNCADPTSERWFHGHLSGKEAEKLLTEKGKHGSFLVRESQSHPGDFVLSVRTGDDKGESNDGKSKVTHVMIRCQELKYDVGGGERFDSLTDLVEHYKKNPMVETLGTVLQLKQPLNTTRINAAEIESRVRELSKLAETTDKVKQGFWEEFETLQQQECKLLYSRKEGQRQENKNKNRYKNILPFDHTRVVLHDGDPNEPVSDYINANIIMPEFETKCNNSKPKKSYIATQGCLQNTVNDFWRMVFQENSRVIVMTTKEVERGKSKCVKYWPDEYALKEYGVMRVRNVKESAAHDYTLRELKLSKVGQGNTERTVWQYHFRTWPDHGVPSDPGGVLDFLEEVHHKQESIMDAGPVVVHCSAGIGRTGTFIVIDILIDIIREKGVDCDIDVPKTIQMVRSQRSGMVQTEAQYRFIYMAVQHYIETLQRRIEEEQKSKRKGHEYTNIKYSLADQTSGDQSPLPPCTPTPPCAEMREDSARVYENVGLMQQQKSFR

What was measured:
[1] = system: pERK1/2 (Thr202/Tyr204) in Miapaca2 cells; test: Assay of intracellular pERK1/2 (Thr202/Tyr204) phosphorylation; conditions: pERK1/2 (Thr202/Tyr204) HTRF, 2 hours
Protocol: Example 3 Assay of Intracellular pERK1/2 (Thr202/Tyr204) Phosphorylation
1. Reagents and Materials • pERK1/2 (Thr202/Tyr204) HTRF kit: Cisbio, Cat #64ERKPEH; • Cell line: Miapaca2, ATCC, CRL-1420; • OptiPlate™-384-well plate: PerkinElmer, Cat #6007299; • 96-well plate: Corning, Cat #353072; • Instrument: EnVision2104, PerkinElmer.
2. Preparation of Reaction Solutions • The test compound was dissolved in DMSO and diluted with DMSO to 600.0 μM, and the compound was further 3-fold diluted with DMSO to: 600.0, 200.0, 66.7, 22.2, 7.4, 2.5, 0.82 and 0.27 μM. […]
wherein • the fluorescence ratio of compound well refers to the fluorescence ratio of the well containing the test compounds; • the fluorescence ratio of negative control well refers to the fluorescence ratio of the background containing the cell lysis buffer and no Miapaca2 cells; • the fluorescence ratio of positive control well refers to the fluorescence ratio of the well containing 0.5% DMSO and Miapaca2 cells.
(§1) IC50 values were calculated following formula 205: y=A+((B−A)/(1+((C/X)^D))), by using the XL-Fit 5.0 software.

[2] = target: Human full-length SHP2 recombinant protein (Homo sapiens (Human), UniProt Q06124); test: Assay of full-length SHP2 phosphatase activity; conditions: DiFMUP substrate, with activating peptide
Protocol: Example 2 Assay of Full-Length SHP2 Phosphatase Activity
1. Reagents and Materials • Human full-length SHP2 recombinant protein: BPS Bioscience, Cat #79018; • SHP2 substrate DiFMUP (1 mM): BPS Bioscience, Cat #79769; • SHP2 activating peptide (100 μM): BPS Bioscience, Cat #79319-2; • DTT: Merck, Cat #DTT-RO; • 384-well plate: Corning, Cat #3575; • 96-well plate: Thermo Fisher Scientific, Cat #249952; • Instrument: EnVision 2104, PerkinElmer.
2. Preparation of Reaction Solutions
The test compound was dissolved in DMSO and diluted with DMSO to 100.0 μM, and the compound was further 3-fold diluted with DMSO to: 100.00, 33.33, 11.11, 3.70, 1.23, 0.41, 0.14 and 0.05 μM. […]
wherein • the RFU of compound well refers to the fluorescence reading at 460 nm of the well containing the test compounds; • the RFU of negative control well refers to the fluorescence reading at 460 nm of the background well containing 1% DMSO and the enzymatic reaction buffer; • the RFU of positive control well refers to the fluorescence reading at 460 nm of the well containing 1% DMSO and the mixed solution of SHP2 enzyme/activating peptide.
as §1

`C#Cc1ccc2c(c1)[C@@H](N)C1(CCN(c3cc(=O)n(-c4ccc(OC)c(F)c4Cl)c(C)n3)CC1)C2` was tested, and the IC50 [1] was 0.223 µM and the IC50 [2] was 0.023 µM.

The match of structure and compound is tentative.
